Measured values: the supplement of paper PMC3334620
The full ranking holds about 33,000 sequences; the median of “E-score (-0.5 to 0.5)” is about -8e-05, and the highest 2% start at about 0.23. The list shows a part of the results.

target: T1, Nrg2 (UniProt P38082); assay: PBM E-score (8-mer binding enrichment) (E-score (-0.5 to 0.5)); higher = stronger / more preferred TF binding; settings: protein concentration: 100 nM; construct: GST-full length
T1 sequence: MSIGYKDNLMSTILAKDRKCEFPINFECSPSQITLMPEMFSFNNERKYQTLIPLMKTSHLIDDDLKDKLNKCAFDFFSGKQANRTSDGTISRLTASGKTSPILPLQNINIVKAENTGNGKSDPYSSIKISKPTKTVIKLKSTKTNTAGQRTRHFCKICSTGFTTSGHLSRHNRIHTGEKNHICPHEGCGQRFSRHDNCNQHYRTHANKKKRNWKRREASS
In short: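 Detection of bound protein used fluorescent anti-GST, with scans normalised by masliner. The proteins were GST-tagged yeast transcription factors applied at about 100-200 nM to universal all-10-mer Agilent arrays made double-stranded by primer extension. Each ungapped eight-base word, pooled with its reverse complement, was scored with an E-score from the Universal PBM Analysis Suite.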

Point of comparison: GTCGGACA, “PBM E-score” value -0.0478. Against it:
- AAGTGCCG — lower, -0.124
- GCGTGCAA — higher, 0.0391
- CAGGAAGC — higher, 0.135
- AGATGTCC — lower, -0.106
- AAGCTGGG — lower, -0.158
- AGTGCCAC — lower, -0.137
- AAAACCGG — higher, 0.0861
- GAGTAAAA — higher, 0.115
- ACTAAATG — higher, -0.0439
- GACCTTAC — higher, -0.0117
- CGTGAATA — higher, 0.17
- CCCTATAC — higher, 0.0369
- CCCGGTGC — lower, -0.242
- CGGAAGCA — higher, 0.161
- ATCGGACA — higher, -0.0296
- ACCCCAAG — higher, 0.0597
- ATTGGCGG — lower, -0.171
- TCCGCAAA — lower, -0.0547
- GCGGCTGA — lower, -0.0643
- CGGATTAG — higher, -0.0194
- AAGATCTA — lower, -0.0798
- AACGTCCA — lower, -0.131
- AAAAAATG — higher, 0.0861
- GTTATAGA — lower, -0.0589
- GGGAAGGA — lower, -0.0581
- CGGCGGTA — higher, 0.138
- CCAACGGC — lower, -0.271
- ATCTAACA — higher, 0.0258
- ATGGAGCG — higher, 0.0304
- AGTGGTCG — higher, 0.00821
- CCTATACG — lower, -0.11
- TAGTTCAA — higher, 0.136
- GGAGTCCC — lower, -0.166
- AACTCACG — higher, 0.0331
- TAGTGAGA — higher, -0.0197
- CTGTGGCA — higher, 0.064
- TAGATCCA — higher, 0.12
- GGGGCCGA — lower, -0.158
- ACTATCAC — higher, -0.016
- AAGGTACT — higher, 0.0177
- TCGCCACA — higher, 0.0198
- CGTGATTC — lower, -0.119
- ACGGGGGC — lower, -0.378
- CCTTTGAA — higher, -0.032
- CATAGTAA — higher, 0.144
- ACTCCCCT — higher, 0.0305
- CGCCACAA — higher, 0.0944
- GATCCTAC — higher, 0.194
- CAAAGTGC — lower, -0.052
- AGGTGTAA — higher, 0.0854
- CGCTGGTC — lower, -0.159
- ATCTCTGG — lower, -0.118
- CCAGACAG — higher, -0.00394
- TGGTGACA — lower, -0.0667
- ATCGCGAT — higher, 0.271
- CCTGTTAG — lower, -0.0527
- ACTCGTAA — higher, 0.146
- ATCTGGCG — lower, -0.0555
- CCAACAGC — higher, 0.0541
- GAGGCGGA — lower, -0.231
- AAGTACCC — higher, 0.0733
- CATATATC — higher, 0.0914
- ATGCTGGA — higher, 0.02
- AGACAAAA — higher, -0.00285
- GCTCCTCC — lower, -0.27
- CACCGCAA — higher, 0.233
- AAGTGACA — higher, 0.145
- GCAGCGGA — higher, 0.0428
- GCACTCGC — higher, -0.0381
- ACTTAGCA — lower, -0.104
- CCACCTCA — higher, 0.117
- AATCTCAA — higher, 0.124
- AACACGAC — higher, 0.0492
- GGTGTTAC — lower, -0.204
- GAGCTTCC — higher, 0.108
- CATCCATA — higher, -0.0199
- GGGTGTGA — lower, -0.181
- CCTCCGCA — higher, -0.0432
- GCATTGAC — lower, -0.171
- ACAATCGG — higher, 0.0611
- CACAGGAA — higher, 0.0234
- TACCCATA — lower, -0.12
- GCTAGCAC — lower, -0.0851
- AGATAGCC — lower, -0.156
- CCCGACGC — lower, -0.106
- ATCTTCTG — lower, -0.0488
- CGCAGACC — lower, -0.233
- CGGCCCTC — lower, -0.257
- GGGATCAC — higher, -0.0306
- AGTAACGG — higher, 0.0195
- AGGAGTAT — higher, -0.0395
- CCGATAGC — lower, -0.163
- GACCTGGC — higher, 0.073
- GGGATAGA — lower, -0.135
- GATGTGCC — lower, -0.154
- AACATGGA — higher, 0.0241
- AAGAAGAC — lower, -0.0746
- GGACCGAC — higher, 0.0348
- CACAGTGG — higher, -0.0358
- CCCGATCA — lower, -0.189
- AACCCACA — higher, 0.0347
- CAGAATTC — higher, -0.0147
- ATATTCAC — higher, 0.137
- GGCGTACA — lower, -0.244
- ACGACTTC — lower, -0.161
- CCACGTCC — lower, -0.123
- CACTTATC — higher, 0.0997
- CAATTTAA — higher, 0.132
- ACTGGTAG — lower, -0.0759
- CTGGGCAA — higher, 0.0385
- CAAGGGGC — higher, 0.0751
- ACACAATG — higher, 0.0758
- TAATGACA — higher, 0.123
- ACATCCGA — higher, 0.0466
- AAGACGCG — higher, 0.0059
- CGGTTCTC — lower, -0.197
- CCGCTACG — lower, -0.191
- ACCTGTTG — higher, 0.024
- GAGGCACC — lower, -0.264
- CGATCGCG — higher, 0.149
- CGTGTTGC — higher, 0.0528
- AGTAACTG — higher, -0.0237
- AGCAAACT — higher, 0.0682
- ACGGACAA — higher, 0.233
- AAAATAGC — lower, -0.146
- ACTTTTTC — lower, -0.0528
- CAGCCTCA — higher, -0.0113
- AAAACTGG — higher, 0.124
- ACCTCGCC — lower, -0.101
- CGAAGCAC — higher, -0.00391
- TATACATA — higher, 0.0439
- ACAGCACT — higher, 0.0609
- CAATGTTA — lower, -0.111
- CGGGACAC — higher, 0.0733
- GCTTTCTA — higher, 0.0576
- AACTAATT — higher, 0.19
- CGTCGTTA — lower, -0.136
- CACACAAG — higher, 0.0622
- GGCGACCA — lower, -0.146
- GTAGAACA — lower, -0.195
- GGCTGTTA — higher, -0.00387
- AATAGCCT — lower, -0.0764
- ACAGCATG — lower, -0.115
- AGGATATA — higher, 0.088
- GCTTTAGA — lower, -0.196
- CCAGTGTA — higher, 0.032
- CACACATC — lower, -0.066
- TTCAAAAA — higher, 0.0879
- TAAGCTTA — higher, 0.112
- CAAGCAAA — higher, 0.0419
- CCATCTGA — higher, 0.00443
- TGGAGACA — higher, -0.0105
- TCAGTTAA — lower, -0.059
- ACTGCATG — higher, 0.0846
- AACGCCGC — lower, -0.067
- CCCTATAG — higher, 0.0795
- GTAGTAAC — higher, -0.0426
- GATCCAAC — higher, -0.0228
- CGTTTACC — higher, 0.0492
- CTTACAAC — higher, 0.0206
- CTGAGCAG — higher, -0.0182
- GCGACGCC — higher, -0.043
- CGGGTGAC — lower, -0.0611
- AACTTCCT — higher, 0.105
- CAGTAGAA — higher, 0.0679
- CTATTCTA — higher, 0.133
- AGAATATG — higher, 0.0751
- GCCGTCAC — higher, 0.00646
- CACAAGGA — lower, -0.0663
- GTTCGAGA — higher, 0.0527
- ATAAAGCC — lower, -0.0662
